{"source": "PubChem BioAssay AID1259405, NCATS – 2018", "screen": "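Silenced genes that increase secreted GFP made by CHO cells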 (primary screen)", "system": "Chinese hamster CHO-K1 ovary cells with stable secreted eGFP expression", "reagents": "single siRNA against mouse genes, 0.8 pmol siRNA per well (2 µl of 400 nM stock)", "duration": "3 days", "measurement": "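Percent of the per-plate non-targeting control median for intracellular GFP per well by laser scanning cytometry and for cell viability by ATP luminescence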", "direction": "GFP, % of control: higher = more GFP per well, higher productivity; viability (ATP), % of control: higher = more viable cells (more ATP)", "call rule": "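Called active when intracellular GFP, relative to negative control, is at or above 120%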", "note": "Shown is an unselected part of about 50,000 deposited reagents. Over the whole deposit, about 4,000 (8%) got an active call. 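Mouse siRNA library applied to hamster cells; one well for each siRNA.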 Unmarked entries are inactive. Reagents against one gene are numbered here. No sequences are given here."}
{"Gene": "Ncdn", "siRNA no.": 1, "GFP, % of control": "138 (active)", "viability (ATP), % of control": 106}
{"Gene": "Ncdn", "siRNA no.": 2, "GFP, % of control": 87.4, "viability (ATP), % of control": 50.2}
{"Gene": "Ncdn", "siRNA no.": 3, "GFP, % of control": 34.7, "viability (ATP), % of control": 56.5}
{"Gene": "Ankra2", "siRNA no.": 1, "GFP, % of control": 88, "viability (ATP), % of control": 82.5}
{"Gene": "Ankra2", "siRNA no.": 2, "GFP, % of control": 37.4, "viability (ATP), % of control": 53}
{"Gene": "Ankra2", "siRNA no.": 3, "GFP, % of control": 82, "viability (ATP), % of control": 97.6}
{"Gene": "Ncan", "siRNA no.": 1, "GFP, % of control": "125 (active)", "viability (ATP), % of control": 119}
{"Gene": "Ncan", "siRNA no.": 2, "GFP, % of control": 78.6, "viability (ATP), % of control": 80.7}
{"Gene": "Xrn1", "siRNA no.": 1, "GFP, % of control": 71.5, "viability (ATP), % of control": 81.8}
{"Gene": "Xrn1", "siRNA no.": 2, "GFP, % of control": 79.3, "viability (ATP), % of control": 82.8}
{"Gene": "Xrn1", "siRNA no.": 3, "GFP, % of control": "176 (active)", "viability (ATP), % of control": 110}
{"Gene": "Brap", "siRNA no.": 1, "GFP, % of control": 33.8, "viability (ATP), % of control": 54}
{"Gene": "Brap", "siRNA no.": 2, "GFP, % of control": 118, "viability (ATP), % of control": 84.1}
{"Gene": "Brap", "siRNA no.": 3, "GFP, % of control": 110, "viability (ATP), % of control": 106}
{"Gene": "Rexo1", "siRNA no.": 1, "GFP, % of control": 106, "viability (ATP), % of control": 91}
{"Gene": "Rexo1", "siRNA no.": 2, "GFP, % of control": 73.6, "viability (ATP), % of control": 63.3}
{"Gene": "Rexo1", "siRNA no.": 3, "GFP, % of control": 79, "viability (ATP), % of control": 75.4}
{"Gene": "Aoc1l3", "siRNA no.": 1, "GFP, % of control": 71.2, "viability (ATP), % of control": 87.5}
{"Gene": "Aoc1l3", "siRNA no.": 2, "GFP, % of control": "127 (active)", "viability (ATP), % of control": 83.1}
{"Gene": "Aoc1l3", "siRNA no.": 3, "GFP, % of control": 80.6, "viability (ATP), % of control": 89.4}
{"Gene": "Nrl", "siRNA no.": 1, "GFP, % of control": 58.5, "viability (ATP), % of control": 56.9}
{"Gene": "Nrl", "siRNA no.": 2, "GFP, % of control": 65.8, "viability (ATP), % of control": 79}
{"Gene": "Nrl", "siRNA no.": 3, "GFP, % of control": 57.6, "viability (ATP), % of control": 55.5}
{"Gene": "Slc46a3", "siRNA no.": 1, "GFP, % of control": 80, "viability (ATP), % of control": 102}
{"Gene": "Slc46a3", "siRNA no.": 2, "GFP, % of control": 64.3, "viability (ATP), % of control": 84}
{"Gene": "Slc46a3", "siRNA no.": 3, "GFP, % of control": 66.5, "viability (ATP), % of control": 78.8}
{"Gene": "Inca1", "siRNA no.": 1, "GFP, % of control": 45.6, "viability (ATP), % of control": 39.6}
{"Gene": "Inca1", "siRNA no.": 2, "GFP, % of control": 55.6, "viability (ATP), % of control": 70.7}
{"Gene": "Inca1", "siRNA no.": 3, "GFP, % of control": 68.1, "viability (ATP), % of control": 92.1}

Ordered by “GFP, % of control” (high to low): some entries from above
{"Gene": "Aoc1l3", "siRNA no.": 2, "GFP, % of control": "127 (active)", "viability (ATP), % of control": 83.1}
{"Gene": "Aoc1l3", "siRNA no.": 3, "GFP, % of control": 80.6, "viability (ATP), % of control": 89.4}
